Article PMC10465447
The exact form of at least one protein or probe is not confirmed. Weaker means in comparison with the reference protein, sequence or condition of that experiment. At least one verdict rests on a figure or table, not on a statement of the authors.

Tests used:
Assay in all cases: magnetic graphene FET sandwich sensor
Conditions in all cases: anti-CTNI antibody magnetic beads; 5'-NH2; PBS pH 7.4 washes; binding buffer not stated; room temperature 2 h (solution pull-down); 30 min bead reaction on sensor; commercial protein; label: 3'-6-FAM; single-stranded DNA
[1] = target: human serum albumin (HSA) (human) (UniProt P02768)
[2] = target: bovine serum albumin (BSA) (bovine) (UniProt P02769)
[3] = system: CK-MB
[4] = target: cardiac troponin T (CTNT) (UniProt P45379)

Measured: binding result

CGTGCAGTACGCCAACCTTTCTCATGCGCTGCCCCTCTTA [CTNI aptamer]
binds more weakly: [1] | [2] | [3] | [4]
